## Primary screen of a compound library

By UniProt entry, the sequences of proteins in these tests, tags left out. Residues count along the entry.
UniProt Q4DA54, 1-478: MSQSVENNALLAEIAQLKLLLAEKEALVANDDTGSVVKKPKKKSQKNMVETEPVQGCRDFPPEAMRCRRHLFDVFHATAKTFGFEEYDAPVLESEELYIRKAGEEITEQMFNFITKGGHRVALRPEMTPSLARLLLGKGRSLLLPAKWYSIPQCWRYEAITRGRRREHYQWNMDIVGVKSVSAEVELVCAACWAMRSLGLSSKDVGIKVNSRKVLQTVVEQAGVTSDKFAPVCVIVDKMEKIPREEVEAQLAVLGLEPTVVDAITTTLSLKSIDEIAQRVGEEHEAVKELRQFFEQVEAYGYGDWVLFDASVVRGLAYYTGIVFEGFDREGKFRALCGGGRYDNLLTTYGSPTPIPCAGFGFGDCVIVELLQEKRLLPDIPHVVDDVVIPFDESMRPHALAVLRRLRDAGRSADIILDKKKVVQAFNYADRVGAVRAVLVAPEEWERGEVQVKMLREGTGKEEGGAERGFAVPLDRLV
UniProt A4I591, 1-473: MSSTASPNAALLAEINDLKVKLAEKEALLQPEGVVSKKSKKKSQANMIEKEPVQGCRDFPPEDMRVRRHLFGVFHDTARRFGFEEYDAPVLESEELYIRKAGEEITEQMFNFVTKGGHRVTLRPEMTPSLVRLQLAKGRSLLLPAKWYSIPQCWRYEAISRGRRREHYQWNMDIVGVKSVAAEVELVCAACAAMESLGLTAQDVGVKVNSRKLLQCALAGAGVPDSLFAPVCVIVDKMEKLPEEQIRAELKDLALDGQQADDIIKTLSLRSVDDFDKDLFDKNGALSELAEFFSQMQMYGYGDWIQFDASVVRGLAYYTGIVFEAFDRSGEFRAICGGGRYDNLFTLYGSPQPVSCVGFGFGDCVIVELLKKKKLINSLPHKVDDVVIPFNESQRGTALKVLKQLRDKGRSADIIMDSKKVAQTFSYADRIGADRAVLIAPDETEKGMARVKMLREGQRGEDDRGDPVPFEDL
UniProt Q8IDJ8, 1-583: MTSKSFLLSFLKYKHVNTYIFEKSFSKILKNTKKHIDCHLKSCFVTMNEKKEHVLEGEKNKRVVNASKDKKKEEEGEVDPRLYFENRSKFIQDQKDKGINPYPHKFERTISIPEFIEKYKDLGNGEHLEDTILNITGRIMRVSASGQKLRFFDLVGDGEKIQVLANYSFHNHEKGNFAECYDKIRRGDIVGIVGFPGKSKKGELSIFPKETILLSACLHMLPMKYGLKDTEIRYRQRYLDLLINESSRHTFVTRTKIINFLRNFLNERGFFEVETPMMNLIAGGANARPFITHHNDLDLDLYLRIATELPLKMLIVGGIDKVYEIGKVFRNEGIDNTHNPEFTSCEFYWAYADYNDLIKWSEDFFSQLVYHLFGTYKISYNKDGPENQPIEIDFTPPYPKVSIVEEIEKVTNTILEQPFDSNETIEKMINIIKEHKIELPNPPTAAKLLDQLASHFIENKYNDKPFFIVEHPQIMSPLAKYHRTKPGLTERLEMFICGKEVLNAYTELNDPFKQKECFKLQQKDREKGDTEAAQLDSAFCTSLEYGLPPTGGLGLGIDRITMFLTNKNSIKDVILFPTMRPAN
UniProt P9WNZ1, whole entry: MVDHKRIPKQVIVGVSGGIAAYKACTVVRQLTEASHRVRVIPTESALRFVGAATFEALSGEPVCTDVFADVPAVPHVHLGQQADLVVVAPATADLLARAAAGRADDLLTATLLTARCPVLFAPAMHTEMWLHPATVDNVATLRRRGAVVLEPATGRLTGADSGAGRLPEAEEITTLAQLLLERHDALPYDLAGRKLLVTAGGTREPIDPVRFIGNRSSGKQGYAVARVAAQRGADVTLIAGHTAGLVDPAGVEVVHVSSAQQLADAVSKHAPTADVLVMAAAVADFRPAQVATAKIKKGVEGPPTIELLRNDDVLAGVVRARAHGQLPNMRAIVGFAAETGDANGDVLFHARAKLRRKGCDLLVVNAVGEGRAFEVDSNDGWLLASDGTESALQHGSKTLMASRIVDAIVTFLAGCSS

From ChEMBL document CHEMBL3988442, “University of Dundee, Small-Polar-MMV Screening Library” (2021).

A: 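Enzyme assay of histidyl-tRNA synthetase; the read-out is not stated. Target: Histidine-tRNA ligase, Trypanosoma cruzi CL Brener (UniProt Q4DA54). Compounds at 30 µM. The record gives no direction; compounds that gave an IC50 in retests scored well above the rest, so higher reads as stronger inhibition. Of about 69,000 compounds tested this way, about 31 (0.045%) reached 50% or more in at least one test.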
B: 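Histidine-tRNA ligase, Leishmania infantum (UniProt A4I591). Enzyme assay of histidyl-tRNA synthetase; the read-out is not stated. Concentration: 30 µM. Direction is inferred from retests: higher values go with stronger inhibition. The assay is labelled LdHisRS but filed under L. infantum. About 69,000 compounds were tested under these conditions; 0.6% (about 410) showed 50% or more at least once.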
C: 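Assay of Toxoplasma gondii numbers, read through their beta-galactosidase reporter with a colour substrate. Concentration: 10 µM. Higher reads as fewer parasites (inferred from which compounds were picked for retests). Size under these conditions: about 67,000 compounds, about 260 of them at 50% or above in at least one test.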
D: 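Enzyme assay of the cytosolic lysyl-tRNA synthetase in 384-well plates, read by luminescence. Target: Lysine-tRNA ligase, Plasmodium falciparum 3D7 (UniProt Q8IDJ8). Tested at 30 µM. Direction is inferred from only a few compounds that gave an IC50; most scored high, so higher reads as stronger inhibition. Of about 69,000 compounds tested this way, about 49 (0.071%) reached 50% or more in at least one test.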
E: 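Enzyme assay of CoaBC with a phosphate dye (Biomol Green) read at 650 nm. Target: Coenzyme A biosynthesis protein CoaBC, Mycobacterium tuberculosis (UniProt P9WNZ1). Tested at 30 µM. Higher reads as stronger inhibition, judged from the few compounds that gave an IC50. Most strong results did not repeat in a second test. About 67,000 compounds were tested under these conditions; 0.06% (about 40) showed 50% or more at least once.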

The filed quantity is “Percent Effect” (%).
The controls that fix the scale are not given in the record; negative values are as filed.
The compounds are a random part of those screened.
Two or more numbers in one place are separate tests of the same structure; such repeats can differ widely.
A dash means the value is not listed here; it may have been measured.

| compound | A | B | C | D | E |
|---|---|---|---|---|---|
| `CC(Cn1cccn1)NC(=O)N(C)Cc1ccc(C(N)=O)cc1` (stereo not given) | -4.878 | 20.48 | -14.39 | 2.295 | 6.962 |
| `O=C(Nc1ccc(F)cc1)C1CCc2ccccc2N1` (stereo not given) | 7.65 | 24.66 | -1.754 | 1.381 | 9.046 |
| `CC(C)n1cc(S(=O)(=O)NCCc2nnc3ccccn23)cn1` | 5.882 | 9.244 | 4.861 | 2.76 | 0.813 |
| `CC1CN(CC(=O)Nc2nncs2)CCN1Cc1nccn1C` (stereo not given) | 1.916 | 6.154 | 2.477 | 5.331 | 2.024 |
| `CN(C)c1cccc(C(=O)N2CCCc3cc(OC(F)(F)F)ccc32)c1` | 3.448 | 17.95 | 3.232 | -3.982 | 0.4 |
| `O=C(c1ccc(C2CCCN2C(=O)c2ccc[nH]2)s1)N1CCSCC1` (stereo not given) | 5.699 | 4.301 | -8.362 | 0.5006 | 2.132 |
| `Cc1ccc(C(=O)N2CCSCC2)cc1NC(=O)NCCO` | 4.132 | 5.714 | 8.121 | 6.735 | 1.075 |
| `CN1CCN(Cc2cn3c(n2)CN(Cc2cccc(F)c2)CC3)CC1.O=C(O)C(F)(F)F.O=C(O)C(F)(F)F.O=C(O)C(F)(F)F` | - | - | 16.34 | - | - |
| `Cc1csc(C2(NC(=O)CCNC(=O)C(C)(C)C)CCCC2)n1` | 6.667 | 13.51 | -2.273 | 6.719 | 5.837 |
| `[H][C@@]12C[C@@H](C(=O)Nc3cnccn3)CN(S(C)(=O)=O)[C@]1([H])CCO2` | - | - | -0.8091 | - | - |
| `[H][C@@]12C[C@H](C)O[C@]1([H])CCN(C(=O)CC1CC1)C2` | - | - | -16.35 | - | - |
| `COc1ccc2c(c1)CCCN(C(C)C(=O)NC(C)C)C2` (stereo not given) | 2.632 | 14.17 | -1.941 | 5.64 | - |
| `CC(=O)N1CCOC[C@H](Oc2ccc(C(F)(F)F)cc2)C1` | 10.87 | 14.86 | 2.708 | 2.774 | 17 |
| `CCn1cc(-c2cncn2CCc2ccc3c(c2)OCCO3)cn1` | -1.916 | 1.429 | - | 0.2313 | 2.913 |
| `CS(=O)(=O)N1CCO[C@@H]2CN(C(=O)COC3CCCC3)C[C@@H]2C1` | 3.743 | 2.564 | - | 1.679 | 1.25 |
| `CN1C(=O)C2(CCN(c3nccc4occc34)CC2)c2ccccc21` | -3.867 | 16.87 | -1.741 | 3.325 | 27.18 & 13.76 |
| `Cn1cccc1C(=O)N1CCN(CC2CC2)c2ncccc2C1` | 3.784 | 13.21 | 0.3205 | -1.495 | 0.6345 |
| `COCC(C)N(C)C(=O)NC1CCN(c2ncccn2)CC1` (stereo not given) | 0.578 | -9.333 | -2.195 | 3.002 | -11.16 |
| `CCN1CCN(C[C@H]2CC[C@@H](Cc3ccc4c(c3)OCO4)O2)CC1` | 4.865 | 19.18 | 11.43 | 1.233 | 10 |
| `Cc1nc(C)c(CNCc2nnc3n2CCCC3C(F)(F)F)s1` (stereo not given) | 9.195 | 17.74 | - | 4.508 | 1.845 |
| `COc1ccccc1[C@@H]1CN(Cc2ccncc2)C[C@H]1C(=O)O` | 3.175 | 9.091 | -13.17 | -2.296 | 5.325 |
| `COCCN1CCC(CNC(=O)Nc2ccc(-c3ccccc3)cc2)C1` (stereo not given) | 4.082 | 13.22 | 15.07 | -0.391 | 9.363 |
| `O=C(c1ccc[nH]1)N1CCN(CC2CCOc3ccccc3C2)CC1` (stereo not given) | 6.504 | 6.731 | 6.746 | -4.35 | -14.35 |
| `Cn1cccc1C(CNC(=O)c1ccc(F)cc1F)N1CCCCCC1` (stereo not given) | 0 | 20.39 | -3.326 | -1.165 | 3.929 |
| `Cc1cccc(COc2ccc(C(C)N)cc2)c1.Cl` (stereo not given) | - | - | 37.52 | - | - |
| `Cc1nc(C)n(C2CCCN(C(=O)c3c[nH]c(C(C)C)n3)C2)n1` (stereo not given) | 0.2907 | 4.386 | -0.9593 | -0.8963 | 12.92 |
| `Cc1ccsc1C(=O)N1CCC2(CC1)C(=O)N(C)CCN2CC1CC1` | -0.5025 | 0 | - | 0.5651 | 0.3713 |
| `CC(C)c1nn(C)c(Cl)c1CNCc1ccc2c(c1)OCCO2.Cl` | - | - | -7.219 | - | - |
| `CC(C)N1CCC(C(=O)N[C@H](C(=O)O)c2cccc(F)c2F)CC1` | 1.02 | 19.44 | -14.47 | 4.979 | 4.762 |
| `CCSc1ccc(C(=O)Nc2c(C)nn(C(C)C)c2C)cn1` | 1.653 | 3.81 | 12.42 | -9.25 | 1.505 |
| `O=C(O)C(F)(F)F.[H][C@@]12CCN(C(=O)Cc3ccccc3)CC[C@]1(C(=O)N(C)C)CCN2CC` | - | - | -40.87 | - | - |
| `N#Cc1ccc(N2CCC3(CCC(=O)N3Cc3cccnc3)CC2)nc1` | 8.543 | 13.86 | - | 3.987 | 2.104 |
| `COCCN1CCCC1c1nccnc1Nc1nc(C)cs1` (stereo not given) | 0 | 11.43 | -14.1 | 7.508 | -6.414 |
| `CC1CN(Cc2ccccc2)CCCN1CCCS(C)(=O)=O` (stereo not given) | 4.762 | 8.219 | -3.578 | 6.18 | -25.83 |
| `O=C(O)C(F)(F)F.O=C(O)C(F)(F)F.O=C(O)C(F)(F)F.[H][C@@]12CN(Cc3cccnc3)CCO[C@]1([H])CN(Cc1ccccc1OC)C2` | - | - | 2.21 | - | - |
| `CS(=O)(=O)N1CCC(c2nccn2Cc2ccccn2)CC1` | 4.891 | 13.33 | 2.308 | 2.794 | -12.4 |
| `CCCOC(=O)N1CCC(c2nnc(Cn3cccn3)n2C2CC2)CC1` | -4.911 | 20.99 | -9.886 | 6.411 | 0.7653 |
| `CCS(=O)(=O)NC[C@]12COC[C@H]1CN(Cc1cccnc1)C2` | 2.299 | -7.895 | - | 0.1369 | -5.906 |
| `CC(=O)N1CCN(C(=O)CCNc2snc(Cl)c2C#N)CC1` | 2.105 | 13.7 | -10.67 | 9.264 | 6.375 |
| `Cc1nc(CN2CCC3(C2)CN(C(=O)c2conc2C)C3)cs1` | 0 | 0.9009 | -16.46 | 4.406 | -0.9901 |
| `Cn1ccc2c(C(=O)N3CCC(C(N)=O)CC3)cccc21` | 2.732 | 11.65 | -8.966 | 9.178 | 2.288 |
| `Fc1cccc(CN2CCC3(CCN3c3ncccn3)C2)c1` (stereo not given) | 7.778 | 20.75 | - | 2.751 | 3.415 |
| `Cc1nc(C)n(CC2CCCCN2Cc2cscn2)n1` (stereo not given) | 0.8403 | -11.57 | -1.158 | 7.907 | 7.991 |
| `COc1ccc(C(=O)NC(CC(=O)O)c2cccs2)c(OC)c1` (stereo not given) | -1.127 | 11.3 | 0.0753 | 6.398 | 3.69 |
| `CN(CCc1cccs1)C(=O)Nc1cnn(CC2CCCO2)c1` (stereo not given) | 5.128 | 20.41 | 4.961 | 7.499 | 15.61 |
| `Cc1nnc(CN(C)C2CCN(Cc3nnc(C4CCC4)o3)C2)n1C` (stereo not given) | 6.395 | 10.71 | -12.22 | 5.318 | 10.09 |
| `Cc1nnc(NC(=O)NCc2ccc(N3CCN(C)CC3)nc2)s1` | -4.545 | 25.76 | -0.8161 | -3.256 | -25.21 |
| `CC(C(=O)NCC1(c2c(F)cccc2F)CCCC1)S(C)(=O)=O` (stereo not given) | 10.34 | 18.42 | 0.05348 | 5.039 | 8.448 |
| `NC(=O)CCS(=O)(=O)Cc1ccc(OCC(F)(F)F)cc1` | 6.494 | 48.57 | -21.14 | 2.88 | - |
| `Cc1ccc(-c2noc(CCC3CCN(C)CC3)n2)nn1` | 6.806 | -2.151 | 0.9798 | 5.593 | 5.556 |
| `CCN1CC(C(=O)NC(C)(C)CC)CC1=O` (stereo not given) | 0 | 8.197 | -3.768 | 2.881 | 7.725 |
| `COc1ccc(CC(=O)N2CCc3nnc(N(C)C)cc3C2)cc1F` | 9.924 | 17.02 | -9.549 | 0.3517 | 4.145 |
| `CC(C)Sc1ncccc1C(=O)NCc1ccc(O)cc1` | 1.433 | 8.772 | -7.37 | -0.3168 | 0.1242 |

The last 3 entries again:

- CCN1CC(C(=O)NC(C)(C)CC)CC1=O (stereo not given) | A: 0%; B: 8.197%; C: -3.768%; D: 2.881%; E: 7.725%
- COc1ccc(CC(=O)N2CCc3nnc(N(C)C)cc3C2)cc1F | A: 9.924%; B: 17.02%; C: -9.549%; D: 0.3517%; E: 4.145%
- CC(C)Sc1ncccc1C(=O)NCc1ccc(O)cc1 | A: 1.433%; B: 8.772%; C: -7.37%; D: -0.3168%; E: 0.1242%